Legend:
[1] = Colour intensity measurement of dyed hair (chromometer; L*a*b*, RGB index); conditions: for ΔE / ΔH: vs natural hair
[2] = Hair dyeing of bleached hair, colour obtained
[3] = Quantification of compounds from extracted dyed hair samples using LCMS; conditions: LC-MS
[4] = PPD/PPD derivative alone, no H2O2, no resorcinol
[5] = C: with coupling agent Resorcinol

Structure (SMILES) | L* ([1]; A: without any oxidant) | a* ([1]; A: without any oxidant) | b* ([1]; A: without any oxidant) | ΔE ([1]; A: without any oxidant) | ΔH ([1]; A: without any oxidant) | L* ([1]; B: with oxidant H2O2) | a* ([1]; B: with oxidant H2O2) | b* ([1]; B: with oxidant H2O2) | ΔE ([1]; B: with oxidant H2O2) | ΔH ([1]; B: with oxidant H2O2) | Colour of dyed hair [2, 4] | Colour of dyed hair ([2]; with H2O2) | RGB index B ([1]; A: derivative only) | RGB index G ([1]; A: derivative only) | RGB index R ([1]; A: derivative only) | RGB index B ([1]; C: derivative with resorcinol) | RGB index G ([1]; C: derivative with resorcinol) | RGB index R ([1]; C: derivative with resorcinol) | L* [1, 5] | a* [1, 5] | other results
CCCCCCOC(=O)c1cc(Nc2ccc(N)cc2)ccc1N [PPD derivative 6, hexyl 2-amino-5-((4-aminophenyl)amino)benzoate] | 45 | 3 | 1 | 6.2 | 1.7 | 9 | 6 | 1 | 2.4 | 2.4 | Green | Dark Green | – | – | – | – | – | – | – | – | –
CCCCCCOc1cc(Nc2ccc(N)cc2)ccc1N [PPD derivative 5, 4-Amino-(3-hexyloxy)-4′-aminodiphenylamine] | 9 | 0 | 1 | 0 | 0 | 11 | 1 | 2 | 2 | 1.41 | Black | Black | 31 | 28 | 29 | 26 | 25 | 26 | 9 | 1 | RGB index B ([1]; B: derivative with H2O2): 26; RGB index G ([1]; B: derivative with H2O2): 25; RGB index R ([1]; B: derivative with H2O2): 26; b* [1, 5]: 1; ΔE [1, 5]: 1; ΔH [1, 5]: 1; Colour of dyed hair ([2]; with resorcinol and H2O2): Dark brown
CCCCCCOc1cc(N)ccc1N [PPD derivative 4, 2-hexyloxy-1,4-diaminobenzene] | 16 | 7 | 0 | 3.6 | 2.44 | – | – | – | – | – | Magenta | Black | 32 | 38 | 30 | 48 | 42 | 60 | 21 | 10 | b* [1, 5]: 3; ΔE [1, 5]: 4.89; ΔH [1, 5]: 3.46; Colour of dyed hair ([2]; with resorcinol and H2O2): Dark magenta
Nc1ccc(N)cc1 [PPD, para-phenylenediamine, reference compound] | 57 | 0 | 30 | 8.77 | 5.38 | 14 | 1 | 3 | 2.82 | 1.73 | no colour | Black | 135 | 177 | 200 | 26 | 25 | 26 | 9 | 0 | RGB index B ([1]; B: derivative with H2O2): 37; RGB index G ([1]; B: derivative with H2O2): 31; RGB index R ([1]; B: derivative with H2O2): 62; b* [1, 5]: 1; ΔE [1, 5]: 0; ΔH [1, 5]: 0; Colour of dyed hair ([2]; with resorcinol and H2O2): Brown; Concentration in extracted hair sample ([3]; Day 1, + H2O2): 0.00086 mg; Concentration in extracted hair sample ([3]; Day 1, + resorcinol + H2O2): 0.001337 mg; Concentration in extracted hair sample ([3]; Day 1, compound only): 0.001517 mg; Concentration in extracted hair sample ([3]; Day 2, + H2O2): 0.00085 mg; Concentration in extracted hair sample ([3]; Day 2, + resorcinol + H2O2): 0.00142 mg; Concentration in extracted hair sample ([3]; Day 2, compound only): 0.001568 mg; Concentration in extracted hair sample ([3]; Day 7, + H2O2): 0.001138 mg; Concentration in extracted hair sample ([3]; Day 7, + resorcinol + H2O2): 0.001504 mg; Concentration in extracted hair sample ([3]; Day 7, compound only): 0.001264 mg
CCCCCCOC(=O)c1cc(N)ccc1N [PPD derivative 15, Hexyl-2,5-diaminobenzoate] | 14 | 1 | 3 | 3.1 | 2.2 | 9 | 0 | 1 | 0 | 0 | Brown | Black | – | – | – | – | – | – | – | – | –
CCCCC(CC)COc1cc(N)ccc1N (centres unmarked) [PPD derivative 3, 2-((2-ethylhexyl)oxy)benzene-1,4-diamine] | 17 | 13 | 2 | 4.69 | 3.74 | – | – | – | – | – | Purple | Black | 26 | 25 | 26 | 54 | 35 | 34 | 9 | 6 | b* [1, 5]: 1; ΔE [1, 5]: 2.44; ΔH [1, 5]: 2.44; Colour of dyed hair ([2]; with resorcinol and H2O2): Black
Nc1ccc(Nc2ccc(Nc3ccc(N)cc3)cc2)cc1 [PPD derivative 2, N^1,N^4-bis(4-aminophenyl)-1,4-benzenediamine] | 22 | 4 | 1 | 4.12 | 2 | 35 | 5 | 0 | 5.47 | 2 | Bluish purple | Grey | 54 | 57 | 34 | 64 | 63 | 67 | 49 | 8 | RGB index B ([1]; B: derivative with H2O2): 81; RGB index G ([1]; B: derivative with H2O2): 83; RGB index R ([1]; B: derivative with H2O2): 75; b* [1, 5]: 8; ΔE [1, 5]: 7.41; ΔH [1, 5]: 3.87; Colour of dyed hair ([2]; with resorcinol and H2O2): light Grey; Concentration in extracted hair sample ([3]; Day 1, + H2O2): 0.1975 mg; Concentration in extracted hair sample ([3]; Day 1, + resorcinol + H2O2): 0.09764 mg; Concentration in extracted hair sample ([3]; Day 1, compound only): 0.2473 mg; Concentration in extracted hair sample ([3]; Day 2, + H2O2): 0.1433 mg; Concentration in extracted hair sample ([3]; Day 2, + resorcinol + H2O2): 0.1228 mg; Concentration in extracted hair sample ([3]; Day 2, compound only): 0.2242 mg; Concentration in extracted hair sample ([3]; Day 7, + H2O2): 0.1752 mg; Concentration in extracted hair sample ([3]; Day 7, + resorcinol + H2O2): 0.1054 mg; Concentration in extracted hair sample ([3]; Day 7, compound only): 0.2323 mg
Nc1ccc(Nc2ccc(N)cc2)cc1 [PPD derivative 1, 4,4′-Diaminodiphenylamine] | 11 | 1 | 2 | 2 | 1.41 | 9 | 1 | 1 | 1 | 1 | Black | Black | 31 | 28 | 29 | 26 | 25 | 26 | 9 | 1 | RGB index B ([1]; B: derivative with H2O2): 26; RGB index G ([1]; B: derivative with H2O2): 25; RGB index R ([1]; B: derivative with H2O2): 26; b* [1, 5]: 1; ΔE [1, 5]: 1; ΔH [1, 5]: 1; Colour of dyed hair ([2]; with resorcinol and H2O2): Dark Brown; Concentration in extracted hair sample ([3]; Day 1, + H2O2): 0.2188 mg; Concentration in extracted hair sample ([3]; Day 1, + resorcinol + H2O2): 0.1209 mg; Concentration in extracted hair sample ([3]; Day 1, compound only): 2.7319e-05 mg; Concentration in extracted hair sample ([3]; Day 2, + H2O2): 0.2183 mg; Concentration in extracted hair sample ([3]; Day 2, + resorcinol + H2O2): 0.1547 mg; Concentration in extracted hair sample ([3]; Day 2, compound only): 2.257e-05 mg; Concentration in extracted hair sample ([3]; Day 7, + H2O2): 0.2441 mg; Concentration in extracted hair sample ([3]; Day 7, + resorcinol + H2O2): 0.1227 mg; Concentration in extracted hair sample ([3]; Day 7, compound only): 2.461e-05 mg

— US11129782B2, “Derivatives of PPD useful for coloring hair and skin” (National University of Singapore, priority 2017, dated 2021)
